# Assay results taken from PubChem BioAssay AID2685 (National Center for Advancing Translational Sciences (NCATS), 2010).
# This is one part of the list. The main result of the screen is listed elsewhere. These columns were measured beside it and carry no call. The list favours compounds with an active or inconclusive main result. Potencies come from curve fits of mixed quality, noted in brackets.
# Assay: qHTS Assay for Lipid Storage Modulators in Drosophila S3 Cells;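 as to cell number change: cells counted by Cell Tracker Red CMTPX staining in the red channel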
# Settings: BODIPY lipid droplet fluorescence, 18-24 h; for cell number change: measured here: cell count max response, cells fed with added oleic acid
# In short: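 Drosophila S3 cells got compounds at several concentrations plus oleic acid (400 uM solution). Laser-scanning cytometry with 488 nm excitation read lipid droplets at 500-530 nm and cells at 575-640 nm. Percent activity was relative to 20 uM Triacsin C.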
# [1] = measured here: cell number channel AC50, cells fed with added oleic acid
# [2] = measured here: lipid fluorescence (Fed channel) AC50, cells fed with added oleic acid
SMILES,cell number change,AC50 [1],AC50 [2]
CC(C)(C)c1ccc(CSc2ccc(S(=O)(=O)N3CCOCC3)cn2)cc1,0.551%,"5.17 µM [falling, single point]","7.31 µM [falling, partial curve, poor fit]"
CC(Sc1nnc(-c2cccs2)n1N)C(=O)NCC1CCCO1 (stereo not drawn),1.68%,–,"32.6 µM [falling, partial curve, poor fit]"
CCCc1cc(NCc2ccccn2)n2c(nc3ccccc32)c1C#N,–,–,"0.00461 µM [rising, full curve, poor fit]"
Cc1cc(C)cc(NC(=O)c2nnn(Cc3cc(C)ccc3C)c2N)c1,–,–,"1.3 µM [rising, partial curve]"
O=C(CNS(=O)(=O)c1cccs1)N1CCCCC1,0.87%,–,–
O=C(COc1nc2ccccc2nc1N1CCOCC1)N1CCc2ccccc21,0.136%,–,–
CCN(Cc1cc2ccc(C)cc2[nH]c1=O)C(=O)c1cccnc1,31.6%,"0.461 µM [rising, full curve]","1.3 µM [rising, full curve, poor fit]"
C#Cc1ccc(C(=O)Nc2cc(C(N)=O)ccc2N2CCOCC2)cc1,-19.2%,–,"6.51 µM [rising, partial curve, poor fit]"
O=c1[nH]cccc1-c1nc2ccccc2n1Cc1cccc(Cl)c1,15.6%,–,"32.6 µM [rising, single point]"
N#CCSc1nc2c(cc1C#N)CCCC2,60.3%,"29.1 µM [rising, single point]","4.11 µM [rising, single point]"
CN(C)S(=O)(=O)c1ccc2nc(NC(=O)c3cccnc3)sc2c1,-2.86%,"0.651 µM [rising, single point]",–
Cc1cccc(NC(=O)c2cnn3ccccc23)c1C,17.9%,–,"29.1 µM [rising, single point]"
Cc1ccc(S(=O)(=O)NCC2COc3ccccc3O2)cc1 (stereo not drawn),5.24%,–,"3.66 µM [rising, partial curve]"
COc1ccc(NC(=O)CN(C)C(=O)c2cccc(S(=O)(=O)N3CC4(C)CC3CC(C)(C)C4)c2)cc1 (stereo not drawn),-84.1%,"29.1 µM [falling, single point]",–
CC1=C(C#N)C(NC(=O)c2cccc(Cl)c2)(C(F)(F)F)C(=O)N1 (stereo not drawn),93.9%,"20.6 µM [rising, single point]","5.17 µM [falling, full curve, poor fit]"
C/C(=N\O)c1ccccc1C(=O)O,-50.8%,"29.1 µM [falling, single point]",–
COc1ccc(N(C(=O)Cc2cccs2)C(C(=O)NC2CCCC2)c2ccncc2)cc1 (stereo not drawn),-15.4%,–,–
CC1(O)CC(c2ccc(Cl)cc2)=NN1C(=O)c1ccc(Cl)cc1 (stereo not drawn),15.2%,–,"29.1 µM [falling, single point]"
CC1CCN(S(=O)(=O)c2ccc(NC(=O)C3CC(=O)N(c4ccccc4)C3)cc2)CC1 (stereo not drawn),–,–,"0.326 µM [falling, full curve, poor fit]"
COc1cccc(C(=O)NCC2CCCN(C3CCCCC3)C2)c1OC (stereo not drawn),2.2%,–,"6.51 µM [falling, single point]"
CCc1ccc(C2NC(C(=O)O)CS2)cc1 (stereo not drawn),-40.5%,"29.1 µM [falling, single point]",–

SMILES,cell number change,AC50 [1],AC50 [2]
CN(c1ccccc1)S(=O)(=O)c1ccc(C(=O)NNC(=O)c2ccccc2F)cc1,-1.88%,–,"20.6 µM [rising, single point]"
Cc1ccc(OCC(=O)NCCNC(=O)c2ccccn2)cc1,-25.7%,–,–
CCCCn1c(C)cc2c(c1=O)C1O[C@](c3ccsc3)(Cc3ccccc31)O2,-12.9%,–,"1.19 µM [rising, single point]"
Cc1ccc(-c2nc3ccccc3n2C)o1,170%,"9.2 µM [rising, partial curve]","18.4 µM [rising, partial curve]"
COc1cc(C[C@H](C)[C@H](C)Cc2ccc3c(c2)OCO3)ccc1O,-32.8%,"16.4 µM [falling, single point]",–
CCOCCCn1c(=S)[nH]c2cc(C(=O)N3CCN(C)CC3)ccc2c1=O,-11.2%,–,"5.8 µM [falling, partial curve]"
COc1ccc(N/C=C\C(=O)c2ccc3c(c2)OCO3)cc1OC,-40.2%,–,"0.00411 µM [rising, full curve, poor fit]"
CNS(=O)(=O)/C=C/c1ccccc1,-25.3%,–,–
Cc1ccc(-c2nc3[nH]c(=O)cc(NC(=O)C(C)C)n3n2)cc1,17.8%,–,–
Nc1cc(C(F)(F)F)ccc1NCCc1ccccn1,-28.4%,–,"20.6 µM [falling, single point]"
Fc1ccc(N2CCN(C(=S)NCC3CCCO3)CC2)cc1 (stereo not drawn),101%,–,–
CCOCCCNC(=S)N1C2CCC1CC(NC(=O)NC13CC4CC(CC(C4)C1)C3)C2 (stereo not drawn),-30.5%,–,"29.1 µM [falling, single point]"
CCCNC(=O)c1ccc2c(=O)c(O)c(-c3ccc(F)cc3)[nH]c2c1,–,–,"16.4 µM [falling, partial curve]"
CC(=O)Nc1ccc(S(=O)(=O)NCC(=O)OCC(=O)N2CCc3ccccc32)cc1,32.1%,"29.1 µM [rising, single point]",–
CCCCCC(=O)c1ccc(O)cc1O,21.7%,–,"4.11 µM [rising, full curve]"
Cc1oc(-c2ccc(Cl)cc2)nc1CS(=O)CC(=O)NC(C)c1ccccc1 (stereo not drawn),-16.7%,–,–
Cc1nnc(N2CCCC(C(=O)NCc3cccc(F)c3)C2)c2nn(-c3ccccc3)c(C)c12 (stereo not drawn),25.9%,"0.0411 µM [rising, full curve, poor fit]","3.66 µM [rising, full curve]"
CCn1cc(S(=O)(=O)CC(=O)Nc2ccc(OC)cc2)c2ccccc21,13.1%,–,"4.11 µM [rising, single point]"
COc1cccc(/C=C/C(=O)Nc2cccc(C(C)=O)c2)c1OC,18.6%,–,"6.51 µM [falling, single point]"
CCOC(=O)c1[nH]c(COC(=O)c2ccccc2NC(=O)c2ccco2)c(C(=O)OCC)c1C,23.2%,"0.82 µM [rising, full curve, poor fit]",–
CCc1ccc(S(=O)(=O)Nc2c(C)n(C)n(-c3ccccc3)c2=O)cc1,4.17%,–,"29.1 µM [rising, single point]"

SMILES,cell number change,AC50 [1],AC50 [2]
CCOc1ccccc1NC(=O)N1CCCC1C(=O)NCc1cccs1 (stereo not drawn),17.1%,–,"0.651 µM [rising, single point]"
N/C(Cc1ccc([N+](=O)[O-])cc1)=N\OC(=O)CC1CCCCC1,117%,"29.1 µM [rising, single point]","0.058 µM [falling, full curve, poor fit]"
O=C(CCc1ccccc1)NC(NC(=S)Nc1ccc(Cl)cc1)C(Cl)(Cl)Cl (stereo not drawn),50.7%,"18.4 µM [rising, single point]",–
Cc1ccc(CS(=O)(=O)CCC(=O)O)cc1,-21.4%,–,"1.16 µM [falling, full curve]"
CCOC(=O)N1CCN(C(=O)C2CCN(C(=O)c3ccc(C(C)(C)C)cc3)CC2)CC1,-6.94%,–,"29.1 µM [rising, single point]"
Cc1ccc(NC(=O)OCCN2CCN(Cc3ccccc3)CCC2=O)cc1,-14%,–,"10.3 µM [rising, partial curve]"
Cc1cc2nc(NCCCO)n(CC(=O)c3cc(C(C)(C)C)c(O)c(C(C)(C)C)c3)c2cc1C,-78.8%,"20.6 µM [falling, partial curve]",–
COc1cc(NC(=O)c2ccc(Cl)cc2)c(OC)cc1NC(=O)CN1CCOCC1,5.63%,–,"16.4 µM [rising, partial curve]"
Cn1c2c(c(=O)n(C)c1=O)C(c1ccc(Br)cc1)Nc1ccccc1O2 (stereo not drawn),39.4%,"0.0517 µM [rising, full curve, poor fit]","7.31 µM [rising, partial curve, poor fit]"
CCc1nnc(NC(=O)Cn2nc(-c3ccc(OC)c(OC)c3)ccc2=O)s1,18.9%,–,"2.06 µM [falling, full curve, poor fit]"
COc1ccc(-c2cc(C(F)(F)F)c(C#N)c(SCC(=O)Nc3ccc(C)cc3)n2)cc1,–,"0.116 µM [rising, full curve]",–
COc1ccc(-c2cn3cccnc3n2)cc1F,2.17%,"0.731 µM [rising, single point]",–
CCCN1CCN(c2ccc(S(N)(=O)=O)cc2[N+](=O)[O-])CC1,3.65%,–,"20.6 µM [falling, single point]"
O=C(Nc1ccc(F)cc1)N(Cc1cccs1)Cc1cc2cc3c(cc2[nH]c1=O)OCO3,10.2%,–,"0.116 µM [rising, full curve, poor fit]"
O=C(Nc1nnc(-c2cccs2)o1)c1ccco1,-2.76%,–,"0.651 µM [falling, full curve, poor fit]"
CN(C(=O)COC(=O)c1ccccc1Nc1ccccc1)C1CCS(=O)(=O)C1 (stereo not drawn),3.47%,–,"16.4 µM [rising, single point]"
CCOc1ccc(CN2CCN(Cc3[nH]c4ccccc4c3C)CC2CCO)cc1 (stereo not drawn),-32.9%,"29.1 µM [falling, single point]","18.4 µM [falling, single point]"
O=C1C(Cl)=C(N2CCCCCC2)C(=O)N1c1ccc(Cl)cc1,-14.4%,–,–
Cn1c(SCC(=O)NC(C)(C)C)nnc1-c1cnccn1,-19.8%,"6.51 µM [falling, single point]","1.3 µM [falling, partial curve]"

# 2 entries from above, bar-delimited:
SMILES | cell number change | AC50 [1] | AC50 [2]
Cc1ccc(S(=O)(=O)NCC2COc3ccccc3O2)cc1 (stereo not drawn) | 5.24% | – | 3.66 µM [rising, partial curve]
COc1ccc(NC(=O)CN(C)C(=O)c2cccc(S(=O)(=O)N3CC4(C)CC3CC(C)(C)C4)c2)cc1 (stereo not drawn) | -84.1% | 29.1 µM [falling, single point] | –
